The other results are listed elsewhere or left out.
Tests used:
Assay in all cases: log2 fold change, soluble protein after heating vs DMSO (PISA); higher = thermal stabilisation; K562 lysate, 10 uM; active = over 0.2 and 3.5 SD of the protein, either way, in both replicates (recomputed)
[1] = compound: C=CC(=O)N1CCC[C@@H](n2nc(-c3ccc(Oc4ccccc4)cc3)c3c(N)ncnc32)C1 [ibrutinib]
Method in brief: (§1)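 Log-two fold change in thermal stability relative to solvent controls is reported from duplicates. For each sample, crude K562 extract from dounce-homogenised pellets in PBS pH 7.4 with 1 mM MgCl2, at 1 mg/mL protein, was treated with 10 μM compound for 30 min. Aliquots heated for 3 min across 48°C-58°C were pooled, brought to 0.5% NP-40 at 4°C and cleared at 21,000xg for 90 min. The supernatant was quantified by TMTpro 16plex LC-MS/MS with channel sums equalised.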

Protein sequences, listed by entry. Tags and fused reporters are not part of them. Lines headed by an entry give the natural chain unless they say otherwise; changes in a name come on top.
UniProt O43719: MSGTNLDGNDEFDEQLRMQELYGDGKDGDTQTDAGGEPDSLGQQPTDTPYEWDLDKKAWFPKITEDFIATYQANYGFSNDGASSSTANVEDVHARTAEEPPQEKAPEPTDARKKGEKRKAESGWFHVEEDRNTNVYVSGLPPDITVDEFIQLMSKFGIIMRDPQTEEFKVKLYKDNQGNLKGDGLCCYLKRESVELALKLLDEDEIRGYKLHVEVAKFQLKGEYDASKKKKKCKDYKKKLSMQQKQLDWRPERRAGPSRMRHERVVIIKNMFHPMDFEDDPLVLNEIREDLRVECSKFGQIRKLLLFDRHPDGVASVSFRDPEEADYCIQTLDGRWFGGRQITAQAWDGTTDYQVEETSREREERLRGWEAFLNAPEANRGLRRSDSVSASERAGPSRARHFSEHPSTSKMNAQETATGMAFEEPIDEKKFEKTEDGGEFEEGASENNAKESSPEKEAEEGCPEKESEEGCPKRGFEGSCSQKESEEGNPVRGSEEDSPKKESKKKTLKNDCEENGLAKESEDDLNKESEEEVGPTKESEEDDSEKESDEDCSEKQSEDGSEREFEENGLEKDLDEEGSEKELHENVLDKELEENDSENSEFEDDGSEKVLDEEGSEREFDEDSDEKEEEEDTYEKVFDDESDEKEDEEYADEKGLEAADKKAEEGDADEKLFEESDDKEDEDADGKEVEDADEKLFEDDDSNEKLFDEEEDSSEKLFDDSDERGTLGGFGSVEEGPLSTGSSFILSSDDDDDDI
UniProt Q9Y547: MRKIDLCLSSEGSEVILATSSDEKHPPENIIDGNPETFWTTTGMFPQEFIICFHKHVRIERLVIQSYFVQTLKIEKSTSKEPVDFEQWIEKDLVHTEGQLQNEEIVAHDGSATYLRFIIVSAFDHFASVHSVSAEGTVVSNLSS
UniProt A1L0T0: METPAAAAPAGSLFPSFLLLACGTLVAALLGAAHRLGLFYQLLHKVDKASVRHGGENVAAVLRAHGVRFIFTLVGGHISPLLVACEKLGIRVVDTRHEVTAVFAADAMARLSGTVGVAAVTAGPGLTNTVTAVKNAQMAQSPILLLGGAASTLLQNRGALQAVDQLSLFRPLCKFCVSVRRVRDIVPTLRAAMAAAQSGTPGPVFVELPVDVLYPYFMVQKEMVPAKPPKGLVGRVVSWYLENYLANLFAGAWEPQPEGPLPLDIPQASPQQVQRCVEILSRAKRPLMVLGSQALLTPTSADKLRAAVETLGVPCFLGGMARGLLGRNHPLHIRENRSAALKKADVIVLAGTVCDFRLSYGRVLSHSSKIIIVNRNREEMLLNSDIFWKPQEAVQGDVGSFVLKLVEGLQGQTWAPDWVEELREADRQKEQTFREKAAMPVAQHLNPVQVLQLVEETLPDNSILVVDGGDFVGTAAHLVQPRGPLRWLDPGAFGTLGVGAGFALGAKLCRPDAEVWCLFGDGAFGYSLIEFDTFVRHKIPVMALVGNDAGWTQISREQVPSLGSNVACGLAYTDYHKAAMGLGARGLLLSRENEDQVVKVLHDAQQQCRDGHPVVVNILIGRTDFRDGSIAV
UniProt Q9NZI8, whole entry, looked up: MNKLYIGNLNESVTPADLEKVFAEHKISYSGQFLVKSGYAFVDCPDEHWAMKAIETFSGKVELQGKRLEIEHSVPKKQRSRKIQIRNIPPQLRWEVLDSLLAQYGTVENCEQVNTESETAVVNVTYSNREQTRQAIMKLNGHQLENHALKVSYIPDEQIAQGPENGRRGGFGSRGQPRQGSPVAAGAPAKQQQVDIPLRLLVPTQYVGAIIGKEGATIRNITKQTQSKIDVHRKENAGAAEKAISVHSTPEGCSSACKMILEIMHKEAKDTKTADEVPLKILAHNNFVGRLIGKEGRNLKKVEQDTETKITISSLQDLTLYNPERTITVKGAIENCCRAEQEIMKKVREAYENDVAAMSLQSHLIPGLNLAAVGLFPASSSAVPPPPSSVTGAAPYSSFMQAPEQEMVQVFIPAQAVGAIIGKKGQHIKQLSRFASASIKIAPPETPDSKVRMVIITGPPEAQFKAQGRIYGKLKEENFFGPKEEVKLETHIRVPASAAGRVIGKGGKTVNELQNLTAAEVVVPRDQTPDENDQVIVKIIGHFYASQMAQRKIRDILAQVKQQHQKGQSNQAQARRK
UniProt Q9H0C8: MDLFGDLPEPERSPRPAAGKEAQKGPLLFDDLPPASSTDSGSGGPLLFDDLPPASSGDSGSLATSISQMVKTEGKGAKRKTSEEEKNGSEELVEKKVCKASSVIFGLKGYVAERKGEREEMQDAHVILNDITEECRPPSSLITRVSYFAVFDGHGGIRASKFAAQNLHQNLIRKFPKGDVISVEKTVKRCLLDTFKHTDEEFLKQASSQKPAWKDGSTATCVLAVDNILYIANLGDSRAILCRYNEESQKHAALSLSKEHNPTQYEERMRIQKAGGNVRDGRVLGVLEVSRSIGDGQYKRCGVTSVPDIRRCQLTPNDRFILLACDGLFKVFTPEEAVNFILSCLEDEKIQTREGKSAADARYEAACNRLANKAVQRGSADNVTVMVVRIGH
UniProt Q9NX62: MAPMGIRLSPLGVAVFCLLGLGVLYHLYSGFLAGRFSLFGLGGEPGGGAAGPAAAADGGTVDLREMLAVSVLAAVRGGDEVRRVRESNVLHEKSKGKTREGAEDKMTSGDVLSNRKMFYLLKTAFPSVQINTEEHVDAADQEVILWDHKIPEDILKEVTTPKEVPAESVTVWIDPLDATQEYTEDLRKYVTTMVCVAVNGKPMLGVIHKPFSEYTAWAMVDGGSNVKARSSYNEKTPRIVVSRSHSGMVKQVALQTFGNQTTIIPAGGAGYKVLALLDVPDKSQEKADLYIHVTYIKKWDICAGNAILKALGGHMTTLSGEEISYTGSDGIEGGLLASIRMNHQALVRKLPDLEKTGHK
UniProt P78318: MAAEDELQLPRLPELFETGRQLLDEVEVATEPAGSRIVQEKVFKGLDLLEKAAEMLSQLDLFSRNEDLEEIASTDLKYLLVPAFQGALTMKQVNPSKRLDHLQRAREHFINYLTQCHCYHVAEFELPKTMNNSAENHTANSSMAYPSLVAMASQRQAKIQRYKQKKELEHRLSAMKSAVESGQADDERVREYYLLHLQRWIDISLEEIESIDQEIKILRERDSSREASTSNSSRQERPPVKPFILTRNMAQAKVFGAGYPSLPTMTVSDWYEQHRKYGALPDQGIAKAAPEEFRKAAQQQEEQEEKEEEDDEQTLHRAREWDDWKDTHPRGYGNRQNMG
UniProt P13598: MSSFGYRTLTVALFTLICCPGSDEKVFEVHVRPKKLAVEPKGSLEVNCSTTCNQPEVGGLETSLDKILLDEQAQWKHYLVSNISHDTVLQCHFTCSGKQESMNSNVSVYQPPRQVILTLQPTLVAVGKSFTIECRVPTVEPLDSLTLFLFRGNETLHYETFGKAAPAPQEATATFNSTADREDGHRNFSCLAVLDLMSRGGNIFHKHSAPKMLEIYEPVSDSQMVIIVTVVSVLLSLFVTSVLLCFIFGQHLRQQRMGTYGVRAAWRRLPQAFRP
UniProt Q9NSE4: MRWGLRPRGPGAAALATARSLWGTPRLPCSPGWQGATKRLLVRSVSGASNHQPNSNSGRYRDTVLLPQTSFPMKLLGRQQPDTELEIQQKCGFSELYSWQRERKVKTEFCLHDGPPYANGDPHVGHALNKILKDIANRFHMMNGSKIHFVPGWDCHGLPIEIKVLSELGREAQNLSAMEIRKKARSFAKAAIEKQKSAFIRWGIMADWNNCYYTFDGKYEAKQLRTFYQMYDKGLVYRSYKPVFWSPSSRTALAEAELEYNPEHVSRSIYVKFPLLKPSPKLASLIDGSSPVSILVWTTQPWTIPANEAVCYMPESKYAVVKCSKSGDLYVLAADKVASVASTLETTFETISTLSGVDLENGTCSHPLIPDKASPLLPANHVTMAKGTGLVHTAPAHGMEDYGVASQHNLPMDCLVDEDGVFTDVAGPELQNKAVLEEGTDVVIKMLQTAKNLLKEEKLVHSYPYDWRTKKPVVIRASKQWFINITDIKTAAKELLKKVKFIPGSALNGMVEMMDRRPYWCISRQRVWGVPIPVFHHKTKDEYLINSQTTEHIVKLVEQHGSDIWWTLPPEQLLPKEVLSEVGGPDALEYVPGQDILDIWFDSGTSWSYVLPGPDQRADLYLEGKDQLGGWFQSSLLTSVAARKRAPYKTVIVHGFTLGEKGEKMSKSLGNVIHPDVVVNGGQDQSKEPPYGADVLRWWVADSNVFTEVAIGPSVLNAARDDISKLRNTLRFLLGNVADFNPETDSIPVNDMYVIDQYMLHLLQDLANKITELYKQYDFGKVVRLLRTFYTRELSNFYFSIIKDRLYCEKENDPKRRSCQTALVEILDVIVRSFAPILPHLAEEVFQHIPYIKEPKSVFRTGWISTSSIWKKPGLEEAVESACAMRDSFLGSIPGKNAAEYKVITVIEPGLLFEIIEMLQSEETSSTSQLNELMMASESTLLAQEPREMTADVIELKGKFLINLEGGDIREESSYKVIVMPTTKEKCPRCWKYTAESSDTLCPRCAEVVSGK
UniProt O00425, whole entry, looked up: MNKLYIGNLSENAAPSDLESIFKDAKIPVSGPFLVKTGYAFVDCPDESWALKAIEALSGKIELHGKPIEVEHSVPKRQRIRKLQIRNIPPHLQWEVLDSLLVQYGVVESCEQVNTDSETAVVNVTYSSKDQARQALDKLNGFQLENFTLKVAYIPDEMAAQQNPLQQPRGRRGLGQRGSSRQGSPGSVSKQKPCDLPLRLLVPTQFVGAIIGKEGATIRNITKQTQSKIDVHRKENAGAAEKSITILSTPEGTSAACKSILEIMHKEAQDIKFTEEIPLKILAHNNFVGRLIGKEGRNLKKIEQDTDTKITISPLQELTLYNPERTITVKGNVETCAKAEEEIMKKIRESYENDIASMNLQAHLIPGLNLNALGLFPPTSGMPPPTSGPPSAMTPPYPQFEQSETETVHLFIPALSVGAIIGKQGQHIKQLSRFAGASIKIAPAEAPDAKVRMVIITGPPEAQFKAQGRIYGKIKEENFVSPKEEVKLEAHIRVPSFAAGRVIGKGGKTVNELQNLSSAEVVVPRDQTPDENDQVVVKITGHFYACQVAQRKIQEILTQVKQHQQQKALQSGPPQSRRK
UniProt Q9UMF0: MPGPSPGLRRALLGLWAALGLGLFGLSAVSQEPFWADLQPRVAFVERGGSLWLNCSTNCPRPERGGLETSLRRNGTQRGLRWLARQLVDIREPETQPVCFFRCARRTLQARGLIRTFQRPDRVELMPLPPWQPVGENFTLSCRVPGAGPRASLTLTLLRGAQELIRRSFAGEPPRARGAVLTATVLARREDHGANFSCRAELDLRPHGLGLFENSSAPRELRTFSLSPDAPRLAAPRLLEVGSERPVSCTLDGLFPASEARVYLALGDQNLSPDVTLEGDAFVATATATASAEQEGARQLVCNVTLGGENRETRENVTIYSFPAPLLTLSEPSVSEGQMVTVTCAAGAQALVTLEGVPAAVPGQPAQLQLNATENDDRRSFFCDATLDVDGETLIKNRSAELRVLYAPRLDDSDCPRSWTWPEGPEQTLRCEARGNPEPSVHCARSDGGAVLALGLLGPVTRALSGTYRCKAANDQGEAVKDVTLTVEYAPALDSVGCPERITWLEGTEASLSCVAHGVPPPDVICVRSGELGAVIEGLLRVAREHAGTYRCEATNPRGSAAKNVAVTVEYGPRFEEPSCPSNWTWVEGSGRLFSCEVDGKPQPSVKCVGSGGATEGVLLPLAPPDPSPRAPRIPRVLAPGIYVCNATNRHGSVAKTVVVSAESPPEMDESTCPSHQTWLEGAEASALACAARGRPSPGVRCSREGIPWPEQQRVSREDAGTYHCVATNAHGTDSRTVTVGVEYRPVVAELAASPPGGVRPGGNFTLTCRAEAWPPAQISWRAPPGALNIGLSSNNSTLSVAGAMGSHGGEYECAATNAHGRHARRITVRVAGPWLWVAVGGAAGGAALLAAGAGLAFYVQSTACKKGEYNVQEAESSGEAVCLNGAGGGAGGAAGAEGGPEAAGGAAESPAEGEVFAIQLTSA
UniProt Q9NZL4: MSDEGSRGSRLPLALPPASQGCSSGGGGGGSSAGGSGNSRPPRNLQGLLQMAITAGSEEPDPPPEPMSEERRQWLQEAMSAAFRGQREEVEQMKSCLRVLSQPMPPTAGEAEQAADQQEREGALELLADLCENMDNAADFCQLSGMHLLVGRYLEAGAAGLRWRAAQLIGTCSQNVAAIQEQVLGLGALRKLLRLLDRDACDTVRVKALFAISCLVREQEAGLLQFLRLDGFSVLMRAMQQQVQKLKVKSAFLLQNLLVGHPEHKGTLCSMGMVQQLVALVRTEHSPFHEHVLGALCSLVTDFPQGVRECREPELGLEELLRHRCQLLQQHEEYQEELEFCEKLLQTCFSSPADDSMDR

[2] = compound: CC(=O)c1cnc2ccc(-c3cc(Cl)c(O)c(Cl)c3)nc2c1N[C@H]1CC[C@H](CN(C)C)CC1
Method in brief: as §1

[3] = compound: CC(C)(C)Cn1c(N)nc2ccc(-c3[nH]c(C(C)(C)C)nc3-c3ccc(F)cc3)nc21 [ralimetinib]
Method in brief: as §1

[4] = compound: CC(C)(O)CC(=O)NCCn1ccc2ncnc(Nc3ccc(Oc4cccc(C(F)(F)F)c4)c(Cl)c3)c21
Method in brief: as §1

[5] = compound: CC(C)C1=C2N=C(C=C(N2N=C1)NCC3=CC=CC=C3)NCCCCCCN
Method in brief: as §1

[6] = compound: CC1=C(C(CC(=O)N1)C2=CC=C(C=C2)C(F)(F)F)C(=O)NC3=C(C=C4C(=C3)C=NN4)F
Method in brief: as §1

[7] = compound: CC1=C(C2=C(C=C1)C(=O)C3=CC=CC=C3N2CCCN)C
Method in brief: as §1

[8] = compound: CC1=C(C=C(C=C1)NC(=O)C2=CC(=CC=C2)C(C)(C)C#N)NC3=CC4=C(C=C3)N=CN(C4=O)C
Method in brief: as §1

[9] = compound: CC1=C(C=C(C=C1)NC(=O)C2=CC(=CC=C2)N(C)C)NC(=O)C3=CC=C(C=C3)O
Method in brief: as §1

[10] = compound: CC1=CC=C(C=C1)SC2=C3C=C(SC3=CN=C2)C(=O)N
Method in brief: as §1

[11] = compound: CCCS(=O)(=O)Nc1ccc(F)c(C(=O)c2c[nH]c3ncc(-c4ccc(Cl)cc4)cc23)c1F [vemurafenib]
Method in brief: as §1

[12] = compound: CCCS(=O)(=O)Nc1ccc(F)c(C(=O)c2c[nH]c3ncc(Cl)cc23)c1F
Method in brief: as §1

[13] = compound: CCN(CCCOc1ccc2c(Nc3cc(CC(=O)Nc4cccc(F)c4)[nH]n3)ncnc2c1)CCOP(=O)(O)O [barasertib]
Method in brief: as §1

[14] = compound: CC[C@@H]1C(=O)N(C)c2cnc(Nc3ccc(C(=O)NC4CCN(C)CC4)cc3OC)nc2N1C1CCCC1
Method in brief: as §1

[15] = compound: CC[C@@H]1C(=O)N(C)c2cnc(Nc3ccc(C(=O)N[C@H]4CC[C@H](N5CCN(CC6CC6)CC5)CC4)cc3OC)nc2N1C(C)C [volasertib]
Method in brief: as §1

[16] = compound: CCn1c(C(=O)N(C2CC2)C2CC2)cc2c3c(ncn3C)c(Nc3cc(C)n(C)n3)nc21
Method in brief: as §1

[17] = compound: CCn1cc(-c2ccnc3[nH]c(-c4cccc(CN(C)C)c4)cc23)c(-c2ccc(NC(=O)N(C)C)cc2)n1
Method in brief: as §1

[18] = compound: CN1CCC(CNc2ccc3ncc(-c4cccc(OC(F)(F)F)c4)n3n2)CC1
Method in brief: as §1

[19] = compound: CN1CCN(CCOc2cc(OC3CCOCC3)c3c(Nc4c(Cl)ccc5c4OCO5)ncnc3c2)CC1 [saracatinib]
Method in brief: as §1

[20] = compound: CN1CCN(c2nc(C3=C(c4c[nH]c5ccccc45)C(=O)NC3=O)c3ccccc3n2)CC1 [sotrastaurin]
Method in brief: as §1

Measured: log2 fold change

HTATSF1 (UniProt O43719)
inactive: [1] 0.007 | [2] -0.022 | [3] 0.017 | [4] -0.034 | [5] -0.023 | [6] -0.01 | [7] 0.003 | [8] 0.004 | [9] 0.017 | [10] -0.022 | [11] -0.017 | [12] -0.002 | [13] 0.002 | [14] 0.047 | [15] -0.012 | [16] -0.002 | [17] 0.007 | [18] 0.028 | [19] 0.007 | [20] 0.01

HSPB11 (UniProt Q9Y547)
inactive: [1] 0.036 | [2] 0.019 | [3] 0.031 | [4] -0.048 | [5] -0.015 | [6] -0.024 | [7] -0.066 | [8] 0.016 | [9] 0.002 | [10] -0.002 | [11] 0.012 | [12] 0.005 | [13] -0.015 | [14] 0.002 | [15] 0.078 | [16] -0.014 | [17] -0.137 | [18] 0.152 | [19] 0.032 | [20] -0.028

ILVBL (UniProt A1L0T0)
inactive: [1] 0.036 | [2] 0.012 | [3] 0.013 | [4] -0.061 | [5] 0.009 | [6] -0.034 | [7] -0.003 | [8] -0.07 | [9] -0.034 | [10] 0.009 | [11] 0.181 | [12] 0.04 | [13] -0.05 | [14] 0.043 | [15] 0.035 | [16] -0.016 | [17] -0.111 | [18] 0.065 | [19] 0 | [20] -0.01

IGF2BP1 (UniProt Q9NZI8)
inactive: [1] 0.026 | [2] -0.013 | [3] 0.052 | [4] 0.057 | [5] 0.047 | [6] -0.035 | [7] -0.02 | [8] -0.005 | [9] 0.049 | [10] 0.03 | [11] 0.047 | [12] 0.022 | [13] 0.024 | [14] -0.08 | [15] -0.029 | [16] 0.05 | [17] -0.124 | [18] -0.033 | [19] 0.021 | [20] 0.023

IFI35 isoform 2 (UniProt P80217)
inactive: [1] 0.016 | [2] -0.003 | [3] 0.001 | [4] -0.046 | [5] -0.043 | [6] 0.02 | [7] -0.002 | [8] 0.015 | [9] -0.022 | [10] 0 | [11] 0.001 | [12] 0.003 | [13] 0.008 | [14] -0.006 | [15] 0.02 | [16] -0.014 | [17] -0.217 | [18] 0.053 | [19] -0.015 | [20] -0.006

ILKAP (UniProt Q9H0C8)
inactive: [1] -0.018 | [2] 0 | [3] -0.007 | [4] 0.031 | [5] -0.032 | [6] 0.007 | [7] 0.037 | [8] -0.016 | [9] 0 | [10] -0.002 | [11] -0.037 | [12] -0.01 | [13] -0.04 | [14] -0.048 | [15] -0.017 | [16] 0.002 | [17] 0.016 | [18] 0 | [19] -0.013 | [20] 0.021

IMPAD1 (UniProt Q9NX62)
inactive: [1] 0.023 | [2] -0.025 | [3] 0.024 | [4] -0.01 | [5] 0.012 | [6] -0.021 | [7] -0.018 | [8] 0.017 | [9] 0.018 | [10] 0.008 | [11] 0.01 | [12] -0.019 | [13] 0.027 | [14] 0.098 | [15] 0.025 | [16] 0 | [17] 0.022 | [18] 0.007 | [19] 0.013 | [20] 0.004

IGBP1 (UniProt P78318)
inactive: [1] 0.003 | [2] -0.011 | [3] 0.003 | [4] 0.007 | [5] -0.003 | [6] 0.013 | [7] -0.01 | [8] 0.029 | [9] -0.013 | [10] -0.012 | [11] -0.002 | [12] 0.039 | [13] -0.007 | [14] 0.028 | [15] 0.005 | [16] 0.015 | [17] -0.232 | [18] 0.001 | [19] 0.029 | [20] 0.021

ICAM2 (UniProt P13598)
inactive: [1] 0.058 | [2] 0.043 | [3] 0.001 | [4] -0.019 | [5] -0.016 | [6] 0.005 | [7] 0.012 | [8] 0.023 | [9] -0.028 | [10] -0.028 | [11] -0.036 | [12] 0.016 | [13] 0.018 | [14] 0.03 | [15] 0.015 | [16] -0.017 | [18] -0.031 | [19] 0.004 | [20] -0.035
active: [17] 0.426

IARS2 (UniProt Q9NSE4)
inactive: [1] -0.006 | [2] -0.008 | [3] -0.005 | [4] 0.007 | [5] -0.025 | [6] -0.031 | [7] 0.016 | [8] 0.005 | [9] 0.013 | [10] -0.031 | [11] -0.007 | [12] -0.005 | [13] 0.037 | [14] -0.003 | [16] -0.013 | [17] 0.198 | [18] -0.032 | [19] -0.002 | [20] 0.003
active: [15] 0.312

IGF2BP3 (UniProt O00425)
inactive: [1] 0.006 | [2] -0.019 | [3] -0.012 | [4] 0.011 | [5] 0.024 | [6] -0.009 | [7] 0.011 | [8] -0.047 | [9] 0.007 | [10] 0.021 | [11] 0.024 | [12] 0.006 | [13] 0.016 | [14] -0.106 | [15] -0.025 | [16] -0.016 | [17] -0.062 | [18] -0.022 | [19] 0.026 | [20] 0.011

Quoted from the entries so far (two entries):
IMPAD1 (UniProt Q9NX62)
inactive: [1] 0.023 | [2] -0.025 | [3] 0.024 | [4] -0.01 | [5] 0.012 | [6] -0.021 | [7] -0.018 | [8] 0.017 | [9] 0.018 | [10] 0.008 | [11] 0.01 | [12] -0.019 | [13] 0.027 | [14] 0.098 | [15] 0.025 | [16] 0 | [17] 0.022 | [18] 0.007 | [19] 0.013 | [20] 0.004

IGBP1 (UniProt P78318)
inactive: [1] 0.003 | [2] -0.011 | [3] 0.003 | [4] 0.007 | [5] -0.003 | [6] 0.013 | [7] -0.01 | [8] 0.029 | [9] -0.013 | [10] -0.012 | [11] -0.002 | [12] 0.039 | [13] -0.007 | [14] 0.028 | [15] 0.005 | [16] 0.015 | [17] -0.232 | [18] 0.001 | [19] 0.029 | [20] 0.021

Continuation.

INPP1 (UniProt P49441)
inactive: [1] -0.081 | [2] -0.02 | [3] 0.003 | [4] -0.044 | [5] -0.01 | [6] 0.001 | [7] 0.008 | [8] -0.011 | [9] 0.005 | [10] 0.022 | [11] -0.015 | [12] -0.012 | [13] 0.044 | [14] -0.053 | [15] -0.02 | [16] -0.005 | [17] 0.003 | [18] 0.026 | [19] 0.035 | [20] 0.044

ICAM5 (UniProt Q9UMF0)
inactive: [1] 0.013 | [2] -0.01 | [3] -0.127 | [4] -0.196 | [5] -0.034 | [6] -0.001 | [7] -0.062 | [8] -0.015 | [9] -0.049 | [10] -0.105 | [11] 0.212 | [12] -0.005 | [13] -0.011 | [14] 0.063 | [15] -0.038 | [16] -0.156 | [17] 0.549 | [18] -0.048 | [19] -0.034 | [20] 0.036

HSPBP1 (UniProt Q9NZL4)
inactive: [1] 0.027 | [2] 0.003 | [3] 0.006 | [4] -0.04 | [5] -0.006 | [6] -0.003 | [7] -0.042 | [8] -0.004 | [9] 0.008 | [10] -0.001 | [11] -0.01 | [12] -0.005 | [13] 0 | [14] 0.06 | [15] 0.002 | [16] -0.009 | [17] -0.004 | [18] 0.038 | [19] 0.006 | [20] 0.012

IK (UniProt Q13123)
inactive: [1] -0.003 | [2] 0.071 | [3] -0.023 | [4] -0.006 | [5] 0.011 | [6] -0.005 | [7] -0.022 | [8] 0.027 | [9] -0.007 | [10] 0.072 | [11] 0.007 | [12] -0.029 | [13] -0.024 | [14] 0.022 | [15] -0.039 | [16] 0.024 | [17] -0.035 | [18] -0.004 | [19] -0.013 | [20] -0.015

INF2 (UniProt Q27J81)
inactive: [1] 0.036 | [2] -0.007 | [3] 0.018 | [4] 0.049 | [5] -0.012 | [6] 0.004 | [7] 0.07 | [8] -0.004 | [9] -0.027 | [10] -0.015 | [11] 0 | [12] -0.059 | [13] 0.104 | [14] -0.07 | [15] -0.052 | [16] -0.01 | [17] -0.064 | [18] -0.045 | [19] 0.036 | [20] 0.019
